This is an account of results in the NIST ThermoML archive (doi:10.1021/je201140q).

± gives the expanded uncertainty stated by the source.

The conditions of this data set: 298.15 K; 101.3 kPa; Liquid; Vibrating tube method.

`CCO` [ethanol]: the mass density was found to be 785.11 ± 0.12 kg/m3.

As a reminder, the mass density is the mass of a sample divided by its volume.
